Results deposited as PubChem BioAssay AID1671195 (Yale University, 2021).
In all, the deposit lists about 22,000 reagents; shown is a random part of them. Of all reagents, about 1,510 (6.9%) were called active. 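Active includes knockdowns raising or lowering LDL uptake; positive z-scores mean more uptake, negative mean less.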 Entries without a mark were called inactive. The numbers tell different reagents against one gene apart.

- Screen: 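Regulators of LDL receptor activity judged by labelled LDL uptake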 (primary screen)
- Cell system: human Huh7 hepatoma cells
- Knock-down reagent: siRNA pool against human genes, 18 nM
- Time to read-out: about 2 to 2.5 days of knockdown, then 8 h LDL uptake
- Treatment: DiI-labelled LDL at 30 µg/ml for 8 h, in lipoprotein-deficient serum medium
- Detection: 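Fluorescent LDL signal imaged in cells, scaled to the plate median, robust z-score for each replicate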
- Direction: robust z-score: higher = more LDL uptake after knockdown
- Call rule: 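a gene counts as active if at least two replicate z-scores exceed ±2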

gene	pool no.	robust z-score, replicate 1	robust z-score, replicate 2	robust z-score, replicate 3
KYAT3 (kynurenine aminotransferase 3)	1	0.252	-0.166	0.179
ZC3H18-DT (ZC3H18 divergent transcript)	1	-0.69	-0.789	-1.12
CNNM3	1	2.54	-0.461	-0.39
HDIP1 (HDAC and MIER1 interacting protein 1)	1	-2.07	-1.89	-1.47
CSTF2 (cleavage stimulation factor subunit 2)	1	-0.0813	-0.214	0.42
FANCA (FA complementation group A)	1	0.93	-0.399	0.485
PPFIA1 (PPFI scaffold protein A1)	1	-0.546	-1.02	-0.512
SCG5 (secretogranin V)	1	-0.881	-0.461	-0.59
PPM1H (protein phosphatase, Mg2+/Mn2+ dependent 1H)	1	-1.25	-0.401	-0.403
CBY1 (chibby 1, beta catenin antagonist)	1	-0.556	-0.806	-1.67
SIAH2 (siah E3 ubiquitin protein ligase 2)	1	1.07	1.53	-0.3
ST8SIA6 (ST8 alpha-N-acetyl-neuraminide alpha-2,8-sialyltransferase 6)	1	1.33	0.941	1.27
F3 (coagulation factor III, tissue factor)	1	-1.5	-1.71	-1.53
PRKCQ (protein kinase C theta)	1	-0.678	-0.986	-1.15
NPEPPSP1 (NPEPPS pseudogene 1)	1	-0.304	-0.604	-0.53
SLC30A5	1	1.09	0.714	0.553
CENPV (centromere protein V)	1	-1.85	-1.95	-1.52
PIGX (phosphatidylinositol glycan anchor biosynthesis class X)	1	-0.768	0.478	-0.0556
GCSH (glycine cleavage system protein H)	1	-0.176	-0.0916	0.182
KHDC1 (KH domain containing 1)	1	0.936	0.83	0.446
CLK4 (CDC like kinase 4)	1	-0.192	0.294	0.0757
EGLN2 (egl-9 family hypoxia inducible factor 2)	1	-1.49	-2.23	-1.34
KMT2A (lysine methyltransferase 2A)	1	-0.535	0.235	-0.395
KMT2A (lysine methyltransferase 2A)	2	-0.52	-1.25	-0.574
ARMCX6 (armadillo repeat containing X-linked 6)	1	-0.921	-0.938	0.0473
VPREB3 (V-set pre-B cell surrogate light chain 3)	1	-1.06	-1.05	-1.65
KRT18P42 (keratin 18 pseudogene 42)	1	-0.818	-0.927	-0.527
CACNB4 (calcium voltage-gated channel auxiliary subunit beta 4)	1	0.289	1.13	0.808
GCOM1 (GCOM1, MYZAP-POLR2M combined locus)	1	3.73 (active)	2.99	4.09
FASLG (Fas ligand)	1	0.329	0.919	0.0133

No new results follow: an excerpt of the list.
gene	pool no.	robust z-score, replicate 1	robust z-score, replicate 2	robust z-score, replicate 3
ZC3H18-DT (ZC3H18 divergent transcript)	1	-0.69	-0.789	-1.12
CNNM3	1	2.54	-0.461	-0.39
HDIP1 (HDAC and MIER1 interacting protein 1)	1	-2.07	-1.89	-1.47
CSTF2 (cleavage stimulation factor subunit 2)	1	-0.0813	-0.214	0.42
FANCA (FA complementation group A)	1	0.93	-0.399	0.485
PPFIA1 (PPFI scaffold protein A1)	1	-0.546	-1.02	-0.512

Additional results:
gene	pool no.	robust z-score, replicate 1	robust z-score, replicate 2	robust z-score, replicate 3
DEFB103B (defensin beta 103B)	1	1.1	-1.2	0.905
MAGI3	1	0.728	0.681	0.839
POTEC (POTE ankyrin domain family member C)	1	1.16	1.14	0.924
DEAF1 (DEAF1 transcription factor)	1	0.562	-0.651	0.468
MRPL20 (mitochondrial ribosomal protein L20)	1	-2.51 (active)	-2.75	-1.08
TMEM254 (transmembrane protein 254)	1	1.09	0.848	1.02
LOC283780 (retired record)	1	1.03	0.796	0.541
LOC127150 (retired record)	1	-0.238	-0.34	-0.151
COQ7 (coenzyme Q7, hydroxylase)	1	-0.0437	-1.25	-0.621
ZBTB18 (zinc finger and BTB domain containing 18)	1	-0.763	-0.512	-0.561
SMIM1 (small integral membrane protein 1 (Vel blood group))	1	-0.254	-0.412	-0.196
SPPL2A (signal peptide peptidase like 2A)	1	0.917	0.598	0.679
CLTC (clathrin heavy chain)	1	-1.55	-1.73	-1.16
MYD88 (MYD88 innate immune signal transduction adaptor)	1	3.98 (active)	3.56	1.44
LOC90462 (retired record)	1	-0.406	-0.568	-0.876
RAB33B (RAB33B, member RAS oncogene family)	1	-1.38	0.231	-0.688
SELENOW (selenoprotein W)	1	0.184	0.378	-0.674
CCDC184 (coiled-coil domain containing 184)	1	0.911	0.777	1.3
HSBP1L1 (heat shock factor binding protein 1 like 1)	1	-0.00863	-0.441	-0.339
ANKRD20A19P (ankyrin repeat domain 20 family member A19, pseudogene)	1	-0.374	-0.889	-0.718
SCRN3 (secernin 3)	1	-0.758	0.708	0.645
CTSD (cathepsin D)	1	0.533	0.00969	0.537
SHD (Src homology 2 domain containing transforming protein D)	1	0.483	-0.229	0.181
EDC3 (enhancer of mRNA decapping 3)	1	0.649	1.58	0.52
LONRF3 (LON peptidase N-terminal domain and ring finger 3)	1	-1.17	-1.61	-0.926
NRGN (neurogranin)	1	-0.0593	-1.26	-0.935
SLC25A39	1	-0.48	0.634	0.157
FAM230I (family with sequence similarity 230 member I)	1	-0.525	-0.748	-0.567
STC1 (stanniocalcin 1)	1	1.05	0.862	-0.57
SLCO3A1	1	-0.976	-1.13	-0.832
ALDH8A1 (aldehyde dehydrogenase 8 family member A1)	1	-0.89	-0.975	-0.989
LOC441091 (retired record)	1	2.35 (active)	3.13	2.42
AKR1C4 (aldo-keto reductase family 1 member C4)	1	-1.4	-1.19	-1.96
LINC02903 (long independently transcribed non-coding RNA 2903)	1	0.118	0.531	-0.557
STAU2 (staufen double-stranded RNA binding protein 2)	1	0.384	1.01	1.15
PIP4K2A (phosphatidylinositol-5-phosphate 4-kinase type 2 alpha)	1	3.44 (active)	2.79	3.29
SLC16A8	1	-1.41	-1.26	-1.33
ETV6 (ETS variant transcription factor 6)	1	1.5	1.19	1.15
